These are yes or no findings as the source states them, for the method shown. Some entries that bind do so weakly or less than the wild type.

Amino acid sequences for entries named in this document (tags omitted). Residues count along the entry.
UniProt O15123, residues 19-496: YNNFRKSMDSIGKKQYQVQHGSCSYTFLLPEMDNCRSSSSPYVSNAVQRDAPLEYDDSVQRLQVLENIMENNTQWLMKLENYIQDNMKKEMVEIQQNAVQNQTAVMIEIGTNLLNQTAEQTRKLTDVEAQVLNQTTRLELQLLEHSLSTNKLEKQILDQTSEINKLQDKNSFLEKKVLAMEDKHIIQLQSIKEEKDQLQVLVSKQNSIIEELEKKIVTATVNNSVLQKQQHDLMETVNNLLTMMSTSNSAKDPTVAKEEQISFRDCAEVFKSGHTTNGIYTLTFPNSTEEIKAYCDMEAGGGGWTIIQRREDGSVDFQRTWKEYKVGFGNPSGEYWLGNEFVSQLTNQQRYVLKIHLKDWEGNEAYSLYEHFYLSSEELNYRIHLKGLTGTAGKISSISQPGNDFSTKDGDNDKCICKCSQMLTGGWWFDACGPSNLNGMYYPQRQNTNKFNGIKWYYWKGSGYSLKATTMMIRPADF

The experiment concerns the target angiopoietin-2 (antigen coated in the hybridoma screening ELISA) (UniProt O15123). Nature of the experiment: ELISA on coated angiopoietin-2, hybridoma culture, anti-mouse IgG-HRP.

B1: Monoclonal antibody SAIT-Ang-2-6 (antibody, V domains shown)
VH: QVQLQQPGSELVRPGTSVKLSCKASGYTFTNYLMHWVKQRPGQGLEWIGNIYPGSGATNYDEKFKSKATLTVDISSSTAYMQLISLTSEDSAVYYCTRDDYDGSWFAYWGQGTLVTVSA
VL: DIVMTQSPSSLSVSAGEKVTMTCKSSQSLLISGNQKNFLAWYQQKPGQPPKLLIYGASTRDSGVPDRFTGSGSGTDFTLTISSVQAEDLAVYYCQNDHSYPLTFGTGTKLELK
notes: also called antibody of hybridoma KCLRF-BP-00222
B1: the binding result is “binds”.

B2: Monoclonal antibody SAIT-Ang-2-5 (antibody, V domains shown)
VH: DVQLVESGGGLAQPGGSRKLSCAASGFTFSNFGMHWVRQAPEKGLDWVAYISSGSDTIYYADTVKGRFTISRDNPKNTLFLQMTSLRSEDTAMYYCARESTMITMGYVLDYWGQGTSVTVSS
VL: DIQMTQSPASQSASLGESVTITCLASQTIGTWLAWYQQKPGKSPQLLIYAATSLADGVPSRFSGSGSGTKFSLKISSLQAEDFVSYYCQQLYSIPLTIGAGTKLELK
notes: also called antibody of hybridoma KCLRF-BP-00221
Consider B2, for which the binding entry is given as “binds”.
